Laboratory results taken from paper PMC6826853.
No constants are given. Whether binding was seen depends on the method and setting. For some of these results: In cells and extracts the contact can be indirect. Some entries that bind do so weakly or less than the wild type.

Sequences of proteins named here, by UniProt entry; tags and fusion partners are left off.
UniProt P40763: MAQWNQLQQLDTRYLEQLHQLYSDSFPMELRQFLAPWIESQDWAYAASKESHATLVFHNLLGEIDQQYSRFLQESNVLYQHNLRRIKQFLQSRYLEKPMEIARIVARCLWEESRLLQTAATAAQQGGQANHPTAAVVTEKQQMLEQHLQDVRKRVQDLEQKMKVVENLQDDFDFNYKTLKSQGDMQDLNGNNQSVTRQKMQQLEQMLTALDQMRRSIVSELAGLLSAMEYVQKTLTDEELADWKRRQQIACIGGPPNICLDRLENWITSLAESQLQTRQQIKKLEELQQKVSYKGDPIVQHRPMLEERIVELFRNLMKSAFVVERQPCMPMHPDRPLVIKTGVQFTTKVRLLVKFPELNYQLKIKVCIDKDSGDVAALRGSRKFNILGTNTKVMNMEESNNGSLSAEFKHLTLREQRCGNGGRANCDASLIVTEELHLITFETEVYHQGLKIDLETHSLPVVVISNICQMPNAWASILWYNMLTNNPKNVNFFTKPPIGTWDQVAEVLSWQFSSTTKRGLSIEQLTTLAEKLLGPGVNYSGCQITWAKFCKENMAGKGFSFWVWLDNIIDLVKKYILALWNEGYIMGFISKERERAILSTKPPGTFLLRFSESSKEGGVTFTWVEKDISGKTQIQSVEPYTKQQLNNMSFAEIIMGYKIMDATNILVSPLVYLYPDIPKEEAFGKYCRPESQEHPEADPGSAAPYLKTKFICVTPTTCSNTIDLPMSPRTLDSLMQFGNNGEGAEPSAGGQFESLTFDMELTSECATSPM
UniProt O60674: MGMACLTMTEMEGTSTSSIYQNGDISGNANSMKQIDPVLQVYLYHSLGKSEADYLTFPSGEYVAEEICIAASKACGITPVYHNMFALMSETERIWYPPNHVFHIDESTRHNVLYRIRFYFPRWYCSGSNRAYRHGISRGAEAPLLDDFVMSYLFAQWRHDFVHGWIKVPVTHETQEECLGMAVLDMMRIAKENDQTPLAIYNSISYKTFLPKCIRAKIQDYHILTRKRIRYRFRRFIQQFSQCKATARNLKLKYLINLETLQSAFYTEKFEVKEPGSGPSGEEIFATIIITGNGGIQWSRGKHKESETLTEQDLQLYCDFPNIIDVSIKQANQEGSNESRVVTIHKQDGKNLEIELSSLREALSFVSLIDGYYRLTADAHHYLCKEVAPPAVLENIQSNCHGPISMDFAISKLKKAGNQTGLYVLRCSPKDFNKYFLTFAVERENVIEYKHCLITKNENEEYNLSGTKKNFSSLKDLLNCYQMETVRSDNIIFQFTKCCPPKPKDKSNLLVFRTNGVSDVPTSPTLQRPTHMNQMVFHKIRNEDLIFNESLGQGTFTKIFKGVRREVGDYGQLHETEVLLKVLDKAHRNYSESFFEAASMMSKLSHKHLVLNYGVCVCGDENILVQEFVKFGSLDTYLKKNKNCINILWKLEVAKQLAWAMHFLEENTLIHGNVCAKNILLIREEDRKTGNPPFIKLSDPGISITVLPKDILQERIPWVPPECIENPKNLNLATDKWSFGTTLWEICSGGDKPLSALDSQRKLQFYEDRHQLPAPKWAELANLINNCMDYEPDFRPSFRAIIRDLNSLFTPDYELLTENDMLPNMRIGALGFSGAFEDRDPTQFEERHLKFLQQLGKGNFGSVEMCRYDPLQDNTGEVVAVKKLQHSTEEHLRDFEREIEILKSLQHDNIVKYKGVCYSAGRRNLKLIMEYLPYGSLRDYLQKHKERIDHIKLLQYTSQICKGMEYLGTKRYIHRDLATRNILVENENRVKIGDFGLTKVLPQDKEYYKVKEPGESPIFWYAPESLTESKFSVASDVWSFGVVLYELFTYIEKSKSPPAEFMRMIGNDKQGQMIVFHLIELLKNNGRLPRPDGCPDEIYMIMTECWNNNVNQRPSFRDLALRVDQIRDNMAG
UniProt Q13153: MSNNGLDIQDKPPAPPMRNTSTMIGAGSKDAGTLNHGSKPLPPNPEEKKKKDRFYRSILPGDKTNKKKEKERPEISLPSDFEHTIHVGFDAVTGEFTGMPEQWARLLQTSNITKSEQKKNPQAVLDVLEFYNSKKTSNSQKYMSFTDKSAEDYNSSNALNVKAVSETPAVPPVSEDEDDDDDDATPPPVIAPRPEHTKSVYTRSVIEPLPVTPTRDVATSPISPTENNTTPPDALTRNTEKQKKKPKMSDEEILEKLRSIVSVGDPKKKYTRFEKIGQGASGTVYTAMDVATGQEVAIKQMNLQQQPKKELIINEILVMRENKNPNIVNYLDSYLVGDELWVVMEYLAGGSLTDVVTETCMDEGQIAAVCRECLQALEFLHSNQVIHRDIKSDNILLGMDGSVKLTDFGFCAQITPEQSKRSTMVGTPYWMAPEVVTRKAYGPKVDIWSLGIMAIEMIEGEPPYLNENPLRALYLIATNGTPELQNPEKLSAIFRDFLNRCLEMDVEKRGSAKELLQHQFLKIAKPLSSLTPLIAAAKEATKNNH

Experiments:
[1] = target: signal transducer and activator of transcription 3 (Stat3) (human (endogenous in breast cancer cells)) (UniProt P40763); assay: Re-ChIP (double chromatin immunoprecipitation); breast cancer cells fixed with 1% formaldehyde, sonicated; first ChIP with anti-pStat3/Stat3 or anti-PAK1 antibody, second ChIP with the other antibody; PCR of the IL-6 promoter region
[2] = target: signal transducer and activator of transcription 3 (Stat3) (human (endogenous in breast cancer cells)) (UniProt P40763); assay: co-IP; endogenous proteins; total protein from breast cancer cells immunoprecipitated with anti-PAK1, anti-JAK2 or anti-Stat3 antibodies, then western blotting
[3] = target: Janus Kinase 2 (JAK2) (human (endogenous in breast cancer cells)) (UniProt O60674); assay: as above
[4] = target: signal transducer and activator of transcription 3 (Stat3) (human (endogenous in breast cancer cells)) (UniProt P40763); assay: native gel or EMSA; supershift: mammosphere nuclear proteins incubated with PAK1 and pStat3 antibodies for 30 min before adding IRDye 800 Stat3 oligonucleotide, room temperature, nondenaturing 6% PAGE

binding [1]: binds | binding [2]: binds | binding [3]: binds | binding [4]: binds
Substance: p21-activated kinase (PAK1) (from UniProt Q13153 1-545)
